Some of the results follow. The main result of the screen is listed elsewhere. These columns were measured beside it and carry no call. Most of these compounds were active or inconclusive in the main read-out, so they are no random draw. The note in brackets gives the kind of curve behind each potency; many fits are weak.
Assay: qHTS Assay for Lipid Storage Modulators in Drosophila S3 Cells;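 as to cell number change: cells counted by Cell Tracker Red CMTPX staining in the red channel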
Settings: BODIPY lipid droplet fluorescence, 18-24 h; for cell number change: measured here: cell count max response, cells fed with added oleic acid
Outline: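 Drosophila S3 cells loaded with oleic acid (400 uM, as added) and compounds at several concentrations; lipid droplets imaged by 488-nm laser-scanning cytometry, 500–530 nm intensity and object ratio to cell channel. Percent activity normalized to 20 uM Triacsin C.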

[1] = measured here: lipid fluorescence (Fed channel) AC50, cells fed with added oleic acid
[2] = measured here: cell number channel AC50, cells fed with added oleic acid

CC(=O)N1CCc2cc(S(=O)(=O)NCCC(=O)NCCc3ccccc3)ccc21
cell number change: -12.6%
AC50 [1]: 1.3 µM [rising, partial curve]

COc1ccc(/C=N/NS(=O)(=O)c2ccc(F)cc2)cc1COc1cc(F)ccc1[N+](=O)[O-]
cell number change: 3.25%

O=C(C1CCCN(S(=O)(=O)c2cccs2)C1)N1CCc2ccccc2C1 (configuration not stated)
cell number change: -23%
AC50 [1]: 6.51 µM [rising, single point]

NS(=O)(=O)c1ccc(CNc2ccc3ccccc3n2)cc1
cell number change: 31.7%
AC50 [2]: 0.82 µM [rising, full curve, poor fit]
AC50 [1]: 0.116 µM [rising, single point]

COc1cccc(N2CCN(C(=O)c3cccc(NC4=NC5CS(=O)(=O)CC5S4)c3)CC2)c1 (configuration not stated)
cell number change: 7.2%
AC50 [2]: 0.651 µM [rising, single point]
AC50 [1]: 3.26 µM [falling, single point]

CC1CCCC(C)N1/N=C/c1ccccc1F (configuration not stated)
cell number change: -17.7%
AC50 [2]: 0.326 µM [rising, partial curve]
AC50 [1]: 1.03 µM [rising, full curve]

O=C(O)c1sc2cc(C(F)(F)F)cnc2c1-c1ccccn1
cell number change: -56.5%
AC50 [2]: 11.6 µM [falling, partial curve, poor fit]
AC50 [1]: 5.8 µM [falling, full curve]

Cc1cc(NC(=O)c2cc(C)on2)no1
cell number change: -25.3%
AC50 [2]: 0.731 µM [falling, full curve]
AC50 [1]: 1.84 µM [falling, full curve]

CC(C)c1cccc(C(C)C)c1NC(=O)c1ccccc1
cell number change: -24.5%

CC(C)(C)C(=O)C(Cc1ccccc1)n1cncn1 (configuration not stated)
cell number change: 84.3%
AC50 [1]: 3.26 µM [falling, single point]

Cc1ccc(N2C(=O)c3ccc(C(=O)NCCN4CCOCC4)cc3C2=O)cc1
cell number change: 17.3%
AC50 [1]: 0.146 µM [falling, partial curve, poor fit]

O=C(CN1CCN(c2ncc(C(F)(F)F)cc2Cl)CC1)NCCNc1ncc(C(F)(F)F)cc1Cl
cell number change: -76.1%

O=C(O)Cn1ncn(-c2ccc(OC(F)(F)F)cc2)c1=O
AC50 [2]: 0.00461 µM [falling, full curve, poor fit]
AC50 [1]: 0.0058 µM [falling, full curve, poor fit]

COc1ccc(-c2ccc(NS(=O)(=O)c3cccc([N+](=O)[O-])c3)cc2)nn1
cell number change: 11%
AC50 [2]: 0.00411 µM [rising, full curve, poor fit]
AC50 [1]: 29.1 µM [rising, single point]

CCOc1ccc(NC(=O)CCN2CCN(S(=O)(=O)c3ccc(Cl)cc3)CC2)cc1
cell number change: 93.5%
AC50 [2]: 14.6 µM [rising, partial curve]
AC50 [1]: 18.4 µM [rising, partial curve]

C/C(=N\Nc1nc2ccccc2[nH]1)c1ccc(C)o1
cell number change: -9.63%
AC50 [1]: 18.4 µM [falling, single point]

CCC(C(=O)N1CCOCC1)n1c(C(=O)OC)cc2occc21 (configuration not stated)
cell number change: 20.8%
AC50 [1]: 29.1 µM [rising, partial curve, poor fit]

CCOCCCNc1ccc(N2C(=O)CCCC2=O)cc1[N+](=O)[O-]
cell number change: 23.7%
AC50 [1]: 0.461 µM [falling, full curve, poor fit]

Cc1ccc(S(=O)(=O)N2CCN(c3ncnc4c3cnn4-c3ccccc3)CC2)cc1
cell number change: 8.43%
AC50 [2]: 6.51 µM [rising, single point]

C=CCNC(=O)c1ccc(N(C)S(=O)(=O)c2ccc(OC)cc2)cc1
cell number change: -3.09%
AC50 [1]: 29.1 µM [falling, partial curve, poor fit]

O=S(=O)(Nc1ccncc1)c1ccc(Cl)c(Cl)c1
cell number change: 6.74%
AC50 [1]: 0.58 µM [rising, single point]

CCCOC(=O)c1cccc(Nc2nc(-c3cccnc3)nc3ccccc23)c1
cell number change: -75.8%
AC50 [2]: 23.1 µM [falling, single point]
AC50 [1]: 29.1 µM [falling, single point]

CCOc1ccccc1Nc1nc2ccc(C)cc2n2cnnc12
cell number change: -41.7%

CCOC(=O)c1ccc(NS(=O)(=O)c2ccc3c(c2)CCCN3C(C)=O)cc1
AC50 [2]: 0.651 µM [falling, full curve]

CS(=O)(=O)N1CCc2cc(C(=O)N3CCN(c4ccc(F)cc4)CC3)ccc21
AC50 [1]: 6.51 µM [rising, single point]

COc1cc(OC)c(OC)cc1/C=C1\CC(C)C/C(=C\c2cc(OC)c(OC)cc2OC)C1=O (configuration not stated)
cell number change: -30.5%
AC50 [2]: 32.6 µM [falling, single point]
AC50 [1]: 32.6 µM [falling, partial curve, poor fit]

O=C(Cn1cnc([N+](=O)[O-])n1)N/N=C/c1ccc(O)cc1O
cell number change: -16.1%
AC50 [2]: 6.51 µM [falling, single point]
AC50 [1]: 4.61 µM [falling, single point]

COc1ccc([N+](=O)[O-])cc1NCc1ccccc1C
AC50 [1]: 0.651 µM [falling, single point]

N#CC1=C(N)Oc2n[nH]c(CSc3ccccc3)c2C12C(=O)Nc1ccccc12 (configuration not stated)
cell number change: -2.27%
AC50 [1]: 0.146 µM [rising, full curve, poor fit]

Cc1ccc(NC(=O)c2cccc(C(=O)Nc3ccc(C)cc3C(=O)O)c2)c(C(=O)O)c1
cell number change: 0.741%
AC50 [1]: 0.731 µM [falling, single point]

CC1(C)NC(=O)N(CCOCCOc2c(Cl)cc(Cl)cc2Cl)C1=O
cell number change: 97.9%
AC50 [2]: 29.1 µM [rising, single point]
AC50 [1]: 5.8 µM [rising, full curve, poor fit]

COc1ccc(NC(=O)c2ccc(NCCN3C(=O)CCC3=O)c([N+](=O)[O-])c2)cc1
cell number change: -42.4%

CC(C)c1ccc(/C=N\NC(=O)c2ccc(Cn3cccn3)o2)cc1
cell number change: -13.7%
AC50 [1]: 20.6 µM [rising, single point]

COC(=O)C1=C(C(=O)c2ccc(C)cc2)C(c2ccccc2)n2nnnc2N1 (configuration not stated)
cell number change: 0.345%
AC50 [1]: 1.64 µM [rising, partial curve, poor fit]

CN(CC1COc2ccccc2O1)C(=O)CSc1ncnc2sccc12 (configuration not stated)
cell number change: -13.2%
AC50 [1]: 0.146 µM [falling, full curve, poor fit]

Oc1ccccc1/C=C/c1noc(-c2ccccc2O)n1
cell number change: 14.6%
AC50 [2]: 2.91 µM [falling, partial curve]
AC50 [1]: 2.31 µM [falling, partial curve]

O=C(CCn1nnc2ccccc2c1=O)N[C@H](C(=O)O)c1ccccc1
cell number change: 0.542%

Cc1c(C#N)c2ccccc2n1CC(=O)N1CCCC1
cell number change: -17.6%
AC50 [1]: 32.6 µM [rising, single point]

CCOc1ccc(NC(=O)CCC(=O)c2ccc(-c3ccccc3)cc2)cc1
cell number change: 48.7%
AC50 [2]: 16.4 µM [rising, single point]
AC50 [1]: 2.59 µM [rising, full curve]

CCOC(=O)c1ccc(NC(=O)Oc2cc(C)c(Cl)cc2C(C)C)cc1
cell number change: -20.6%

COC(=O)c1ccc(CO/N=C/c2cccc([N+](=O)[O-])c2)cc1
cell number change: 7.91%
AC50 [1]: 29.1 µM [falling, single point]

O=C(NCc1ccc2c(c1)OCO2)C1CCCN(S(=O)(=O)c2cccs2)C1 (configuration not stated)
cell number change: 26.6%
AC50 [2]: 0.13 µM [rising, full curve, poor fit]

COc1ccc(C(=O)NCCCN(C)CCCNC(=O)c2ccc(OC)cc2)cc1
cell number change: 15.5%
AC50 [1]: 29.1 µM [rising, single point]

Cc1cc(=O)[nH]c(SCC(=O)Nc2ccc(C(=O)O)cc2)n1
cell number change: 14.5%
AC50 [2]: 0.517 µM [falling, single point]

Cc1cc2c(N=NC(=O)CCc3ccccc3)c(O)[nH]c2cc1Br
cell number change: 5.01%
AC50 [2]: 6.51 µM [rising, partial curve, poor fit]
AC50 [1]: 1.03 µM [rising, full curve]

CCc1ccc(NC(=O)CSc2nc3ccccc3c(=O)n2CCCN2CCC(C)CC2)cc1
cell number change: -25.8%
AC50 [1]: 18.4 µM [falling, single point]

CCN1CCN(CC(O)COc2ccc(Cl)cc2)CC1 (configuration not stated)
cell number change: -45.3%
AC50 [2]: 29.1 µM [falling, single point]
AC50 [1]: 29.1 µM [falling, single point]

Cc1ccccc1C(=O)NC(=S)NCCc1ccccc1
cell number change: 36.5%
AC50 [2]: 7.31 µM [rising, partial curve]

COc1ccccc1/C=C1/C(=O)N(c2ccccc2)N=C1C
cell number change: 20.8%

O=C(NC(NC(=O)c1ccccc1)c1ccccc1)c1ccccc1
AC50 [2]: 6.51 µM [falling, single point]

O=C1NC[C@H](CC2CCCCC2)N(CCc2cccc(F)c2)C1=O
cell number change: -8.63%
AC50 [1]: 0.00411 µM [rising, full curve, poor fit]

C=CCn1c(SCC(=O)/C(C#N)=C(\C)N)nnc1C1CCCCC1
cell number change: -24.1%
AC50 [1]: 0.731 µM [falling, single point]

Cn1c(C(=O)NC2CCCCC2)cc2c(=O)n3ccccc3nc21
cell number change: 23.4%
AC50 [1]: 29.1 µM [falling, single point]

Cc1cc2oc(C(=O)N(Cc3ccccc3)C3CCS(=O)(=O)C3)cc(=O)c2cc1Cl (configuration not stated)
cell number change: 119%
AC50 [2]: 2.31 µM [rising, full curve]
AC50 [1]: 3.66 µM [rising, partial curve]

Cc1cc(C)n(-c2nnc(N3CCN(c4ccc(F)cc4)CC3)nn2)n1
cell number change: 35.5%

Cc1cc(C)c2c(CN3CCN(C/C=C/c4ccccc4)CC3)cc(=O)oc2c1
cell number change: -25.7%
AC50 [1]: 16.4 µM [falling, single point]

O=C(CCNS(=O)(=O)c1cccc2nsnc12)NCCc1ccccc1
cell number change: 3.18%
AC50 [1]: 14.6 µM [rising, single point]

Source: PubChem BioAssay AID2685 (National Center for Advancing Translational Sciences (NCATS), 2010)
